In PubChem BioAssay AID652054 (National Center for Advancing Translational Sciences (NCATS), 2013):
Hit rate of the full screen: of about 360,000 compounds, about 9,100 (2.5%) were called active. Inconclusive results, whose numbers are uncertain, are shown with a selection of clear calls. Rule as the data show it: active = max response below about -50%; inconclusive = no clear call, values can overlap the other calls; inactive = above that.

Amino acid sequences for entries named in this document (tags omitted).
UniProt P35462, whole entry, looked up: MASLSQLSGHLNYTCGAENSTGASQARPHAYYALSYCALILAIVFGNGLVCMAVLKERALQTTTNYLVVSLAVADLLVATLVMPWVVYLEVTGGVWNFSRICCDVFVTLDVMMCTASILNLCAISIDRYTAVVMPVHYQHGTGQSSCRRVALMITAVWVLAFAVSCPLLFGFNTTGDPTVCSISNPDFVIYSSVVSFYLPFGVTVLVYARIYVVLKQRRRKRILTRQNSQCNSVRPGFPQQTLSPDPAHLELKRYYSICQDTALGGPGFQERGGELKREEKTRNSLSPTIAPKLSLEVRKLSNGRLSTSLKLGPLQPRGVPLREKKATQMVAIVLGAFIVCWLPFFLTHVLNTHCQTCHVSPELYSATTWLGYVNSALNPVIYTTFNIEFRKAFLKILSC

target: D(3) dopamine receptor (Homo sapiens) (UniProt P35462); assay: qHTS of D3 Dopamine Receptor Antagonist: qHTS; conditions: D3R cells, DiscoveRx beta-arrestin luminescence, antagonist mode; active compounds read low
Summary of the method: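 Cells expressing the human receptor were seeded at 1500 cells/well, incubated overnight at 37 degrees C in 5% CO2, then exposed to library compounds with dopamine controls for 90 minutes at 37 degrees C before luminescent detection.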
% is scaled to controls: 0 for no effect and ±100 for the full control effect.

Max response, negative = inhibition, inconclusive:
COC(=O)N/N=C/c1cc(C)n(-c2ccc(F)cc2)c1C -45.8%
CC(=O)Nc1ccc(/C(C)=N/NS(=O)(=O)c2ccc(C)cc2)cc1 -39.2%
Cc1ccc(/C=N/NC(=O)CC(=O)NCc2cccnc2)cc1 -37.9%
NC(=S)Nn1c(CCC(=O)O)ccc1-c1ccccc1 -39.5%
Cc1ccc(S(=O)(=O)NCC(=O)OCc2nnc(-c3ccccc3)o2)cc1C -43%
O=C(Cc1ccccc1)N[C@H](c1ccccc1)P(=O)(O)CO -32.1%
CN(CC(=O)Nc1ccc(Cl)c(Cl)c1)C(=O)C1CCCC1 -43.1%
C=CCn1c(C(C)NC(=O)c2ccccc2)n[nH]c1=S (centres undefined) -41.9%
CCCn1c(=O)n(C)c(=O)c2c(SCC(=O)NCc3ccco3)nc(C3CC3)nc21 -45.7%
COc1cccc(CN2CCN(Cc3cccc4c3OCO4)CC2CCO)c1 (centres undefined) -38.4%
O=C(c1ccco1)N1CCN(C(=O)c2oc(=O)c3ccccc3c2-c2ccccc2)CC1 -43%
CCCCOC(=O)c1ccc(NC(=O)C(=O)CC(=O)c2ccc(OC)cc2)cc1 -41.1%
COc1ccc(NC(=O)C#Cc2ccccc2)cc1OC -33.9%
O=[N+]([O-])c1ccc(Sc2ccncn2)c([N+](=O)[O-])c1 -48.2%
COc1ccc2c(c1)CCc1c(C(=O)N3CCCC3)noc1-2 -39.7%
Cc1ccc([C@H]2C(C(=O)O)=CC[C@@H](c3ccc(C)cc3)N2S(=O)(=O)c2ccc(C)cc2)cc1 -33.6%
CCOc1ccc(C(=O)OC(C)C(=O)N2CCN(Cc3ccccc3)CC2)cc1 (centres undefined) -33.6%
CC(=O)NCCc1ccc(S(=O)(=O)Nc2ccc(C)c(S(=O)(=O)N3CCOCC3)c2)cc1 -46.3%
O=C1CC(c2ccccc2)CN1C(=O)c1ccccc1 (centres undefined) -47.4%
COc1cc2c(C(=O)N(C)c3ccc(F)cc3)cn(C)c(=O)c2cc1OC -45.1%
CCn1cnc2c1c(=O)n(Cc1nnc3n1-c1ccccc1SC3)c(=O)n2Cc1ccccc1 -32.6%
CCc1sc(N(C(=O)Cc2ccccc2)c2ccc(F)cc2)nc1-c1ccccc1 -32.7%
Cc1ccc(-n2c(SCC(N)=O)nc3c([nH]c4ccccc43)c2=O)cc1 -39.6%
O=C(CNCc1ccco1)Nc1cccc(S(=O)(=O)N2CCCCC2)c1 -38.5%
CCCc1nnc(NC(=O)CNc2ccc(F)cc2)s1 -34.4%
Cc1cc(/C=N/Nc2ccc([N+](=O)[O-])cn2)c(C)n1-c1ccc(C(=O)O)cc1 -36.5%
O=[N+]([O-])c1ccc(/C=[N+](\[O-])[C@@H]2CCCC[C@@H]2/[N+]([O-])=C/c2ccc([N+](=O)[O-])o2)o1 -31.3%

Four consecutive entries from above, for reference:
Max response, negative = inhibition, inconclusive:
CN(CC(=O)Nc1ccc(Cl)c(Cl)c1)C(=O)C1CCCC1 -43.1%
C=CCn1c(C(C)NC(=O)c2ccccc2)n[nH]c1=S (centres undefined) -41.9%
CCCn1c(=O)n(C)c(=O)c2c(SCC(=O)NCc3ccco3)nc(C3CC3)nc21 -45.7%
COc1cccc(CN2CCN(Cc3cccc4c3OCO4)CC2CCO)c1 (centres undefined) -38.4%

Following part:

Max response, negative = inhibition, active:
CC1CCCN(CCCNC(=O)c2ccc3c(c2)N(Cc2cccc(Cl)c2)C(=O)c2ccccc2S3=O)C1 (centres undefined) -117%
O=C(CN1CCN(c2ccccc2O)CC1)Nc1ccc2c(c1)CCC2 -71.5%
CCCN(CCO)Cc1ccc(Cl)c(Cl)c1 -58.7%
O=[N+]([O-])c1ccccc1S(=O)(=O)N1CCN(C2CCCC2)CC1 -59%
Cc1oc(=O)c(NC(=O)c2ccc(Cl)cc2)cc1C(=O)c1ccccc1 -80%

Max response, negative = inhibition, inactive:
O=C(O)C(Cc1ccccc1)n1cccc1 (centres undefined) 10.8%
O=C(C1CCCN(c2ncnc3c2nc2n3CCCCC2)C1)N1CCN(c2ccccc2)CC1 (centres undefined) 97.2%
CN(C)S(=O)(=O)c1cccc(NC(=O)c2ccccc2SCC(=O)N2CCCC2)c1 63.5%
Cc1ccc(S(=O)(=O)N2CCOCC2)cc1NC(=O)COC(=O)CCc1c[nH]c2ccccc12 17.4%
Cc1ccc2nc(NC(=O)C3CCN(S(=O)(=O)c4cccnc4)CC3)sc2c1 2.82%
Cn1cc([N+](=O)[O-])c(C(=O)NC2CCCCCC2)n1 -5.67%
CC1(C)CC(=O)/C(=C(/O)CCCN2C(=O)c3ccccc3C2=O)C(=NC(C)(C)C)C1 2.53%
CCOC(=O)C(=CNc1cc(C)ccc1C)C(=O)OCC 113%
Cc1c(Cl)cccc1NC(=O)CSCC(N)=O -3.16%
COc1ccc(-c2nnc(NC(=O)Cc3ccccc3)o2)cc1 -6.3%
Cc1cccc(N(Cc2cc3ccccc3[nH]c2=O)C(=O)c2cccs2)c1 4.09%
CN(C)CCCN(C(=O)c1ccc(S(=O)(=O)N(C)Cc2ccccc2)cc1)c1nc2cc3c(cc2s1)OCO3 -9.17%
